Some of these results come from one statement about several compounds together.
The compounds below were run against human NaV 1.8 (Homo sapiens, UniProt Q9Y5Y9) (assay: E-VIPR Assay Detecting and Measuring NaV Inhibition Properties). Settings: HEK cells expressing a truncated form of human NaV 1.8 with full channel activity; electrical stimulation, membrane-potential FRET dyes; 30 minutes compound incubation; read-out: measured IC50 value in the E-VIPR Assay.
Assay type: cell-based

Sequences of proteins named here, by UniProt entry; tags and fusion partners are left off. Residues count along the entry.
UniProt Q9Y5Y9, 126-1722 limits assumed: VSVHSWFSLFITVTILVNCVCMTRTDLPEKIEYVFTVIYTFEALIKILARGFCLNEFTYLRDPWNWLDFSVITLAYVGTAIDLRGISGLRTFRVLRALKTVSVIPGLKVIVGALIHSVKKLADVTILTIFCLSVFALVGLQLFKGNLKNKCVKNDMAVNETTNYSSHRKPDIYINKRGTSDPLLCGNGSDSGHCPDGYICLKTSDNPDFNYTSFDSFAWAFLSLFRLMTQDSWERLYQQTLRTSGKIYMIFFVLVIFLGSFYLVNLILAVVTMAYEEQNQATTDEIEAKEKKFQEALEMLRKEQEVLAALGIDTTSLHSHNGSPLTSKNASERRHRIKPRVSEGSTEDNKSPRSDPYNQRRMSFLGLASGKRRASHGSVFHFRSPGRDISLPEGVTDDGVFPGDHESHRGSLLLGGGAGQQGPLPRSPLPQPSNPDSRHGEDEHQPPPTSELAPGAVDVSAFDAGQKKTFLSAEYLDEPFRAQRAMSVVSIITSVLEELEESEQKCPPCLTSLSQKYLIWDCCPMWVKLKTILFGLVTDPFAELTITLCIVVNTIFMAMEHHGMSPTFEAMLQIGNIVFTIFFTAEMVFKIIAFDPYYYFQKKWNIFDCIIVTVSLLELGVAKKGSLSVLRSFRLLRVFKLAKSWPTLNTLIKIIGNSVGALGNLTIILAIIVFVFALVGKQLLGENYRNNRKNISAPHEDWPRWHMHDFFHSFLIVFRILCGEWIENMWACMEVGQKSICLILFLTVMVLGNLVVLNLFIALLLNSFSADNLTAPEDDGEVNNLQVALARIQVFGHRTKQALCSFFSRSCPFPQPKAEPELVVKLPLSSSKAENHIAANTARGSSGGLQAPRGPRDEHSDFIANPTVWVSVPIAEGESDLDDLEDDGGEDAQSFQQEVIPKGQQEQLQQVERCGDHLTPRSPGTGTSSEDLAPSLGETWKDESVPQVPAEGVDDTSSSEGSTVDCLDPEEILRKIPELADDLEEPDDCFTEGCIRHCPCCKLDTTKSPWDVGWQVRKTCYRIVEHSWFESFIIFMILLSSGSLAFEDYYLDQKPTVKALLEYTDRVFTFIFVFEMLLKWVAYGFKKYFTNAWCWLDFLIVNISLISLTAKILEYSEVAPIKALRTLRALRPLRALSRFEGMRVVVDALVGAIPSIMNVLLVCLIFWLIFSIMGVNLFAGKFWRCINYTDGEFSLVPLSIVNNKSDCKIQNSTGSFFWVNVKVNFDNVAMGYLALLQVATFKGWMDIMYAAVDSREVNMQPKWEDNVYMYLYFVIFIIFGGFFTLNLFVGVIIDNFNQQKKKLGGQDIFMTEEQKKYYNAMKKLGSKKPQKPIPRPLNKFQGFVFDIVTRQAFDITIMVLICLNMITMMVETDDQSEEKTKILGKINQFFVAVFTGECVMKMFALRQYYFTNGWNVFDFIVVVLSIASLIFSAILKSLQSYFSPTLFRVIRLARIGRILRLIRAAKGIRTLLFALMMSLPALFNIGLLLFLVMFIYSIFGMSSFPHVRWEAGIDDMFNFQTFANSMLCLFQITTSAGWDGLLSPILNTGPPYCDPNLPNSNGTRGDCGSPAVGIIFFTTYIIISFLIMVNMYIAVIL

IC50, < 500 nM:
Cc1cc(-c2cc(=O)c(-c3nnn(C)n3)c(C)[nH]2)c(N2CCCC(F)(F)CC2)nc1C(F)(F)F [Compound 178, 6-[2-(4,4-difluoroazepan-1-yl)-5-methyl-6-(trifluoromethyl)-3-pyridyl]-2-methyl-3-(2-methyltetrazol-5-yl)-1H-pyridin-4-one]
Cc1[nH]c(-c2cnc(C(C)(C)C)nc2C2CCC(F)(F)CC2)cc(=O)c1-c1nnn(C)n1 [Compound 179, 6-[2-tert-butyl-4-(4,4-difluorocyclohexyl)pyrimidin-5-yl]-2-methyl-3-(2-methyltetrazol-5-yl)-1H-pyridin-4-one]
Cc1[nH]c(-c2c(Oc3ccc(F)c(F)c3C)ncc(C(F)(F)F)c2C)cc(=O)c1-c1ncc[nH]c1=O [Compound 180, 3-[6-[2-(3,4-difluoro-2-methyl-phenoxy)-4-methyl-5-(trifluoromethyl)-3-pyridyl]-2-methyl-4-oxo-1H-pyridin-3-yl]-1H-pyrazin-2-one]
Cc1[nH]c(-c2c(C)c(C(C)(C)C)nn2C2CCC(F)(F)CC2)cc(=O)c1-c1nnn(C)n1 [Compound 181, 6-[5-tert-butyl-2-(4,4-difluorocyclohexyl)-4-methyl-pyrazol-3-yl]-2-methyl-3-(2-methyltetrazol-5-yl)-1H-pyridin-4-one]
CCOC(=O)c1c(-c2cc(C(F)(F)F)cnc2Oc2ccc(F)cc2CC)[nH]c(C)cc1=O [Compound 182, ethyl 2-[2-(2-ethyl-4-fluoro-phenoxy)-5-(trifluoromethyl)-3-pyridyl]-6-methyl-4-oxo-1H-pyridine-3-carboxylate]
CCOC(=O)c1c(-c2cc(C(F)(F)F)c(C)nc2Oc2ccc(F)c(F)c2C)[nH]c(C)c(-c2ccc[nH]c2=O)c1=O [Compound 183, ethyl 2-[2-(3,4-difluoro-2-methyl-phenoxy)-6-methyl-5-(trifluoromethyl)-3-pyridyl]-6-methyl-4-oxo-5-(2-oxo-1H-pyridin-3-yl)-1H-pyridine-3-carboxylate]
CCOC(=O)c1c(-c2cc(C(F)(F)F)c(C)nc2Oc2ccc(F)c(F)c2C)[nH]c(C)c(-c2cccc(=O)[nH]2)c1=O [Compound 184, ethyl 2-[2-(3,4-difluoro-2-methyl-phenoxy)-6-methyl-5-(trifluoromethyl)-3-pyridyl]-6-methyl-4-oxo-5-(6-oxo-1H-pyridin-2-yl)-1H-pyridine-3-carboxylate]
COc1c(Oc2cnc(C(F)(F)F)c(C)c2-c2cc(=O)c(-c3ncco3)c(C)[nH]2)ccc(F)c1F [Compound 185, 6-[5-(3,4-difluoro-2-methoxy-phenoxy)-3-methyl-2-(trifluoromethyl)-4-pyridyl]-2-methyl-3-oxazol-2-yl-1H-pyridin-4-one]
Cc1[nH]c(-c2cnc(C3CC(F)(F)C3)cc2C2CCC(C(F)(F)F)CC2)cc(=O)c1-c1cnc(=O)[nH]c1 (stereo not drawn) [Compound 186, 5-[6-[6-(3,3-difluorocyclobutyl)-4-[4-(trifluoromethyl)cyclohexyl]-3-pyridyl]-2-methyl-4-oxo-1H-pyridin-3-yl]-1H-pyrimidin-2-one]
Cc1[nH]c(-c2cnc(C3CC(F)(F)C3)cc2C2CCC(C(F)(F)F)CC2)cc(=O)c1-c1ccc[nH]c1=O (stereo not drawn) [Compound 187, 6-[6-(3,3-difluorocyclobutyl)-4-[4-(trifluoromethyl)cyclohexyl]-3-pyridyl]-2-methyl-3-(2-oxo-1H-pyridin-3-yl)-1H-pyridin-4-one]
COc1cccc(-c2c(C)[nH]c(-c3cnc(C4CC(F)(F)C4)cc3C3CCC(C(F)(F)F)CC3)cc2=O)n1 (stereo not drawn) [Compound 188, 6-[6-(3,3-difluorocyclobutyl)-4-[4-(trifluoromethyl)cyclohexyl]-3-pyridyl]-3-(6-methoxy-2-pyridyl)-2-methyl-1H-pyridin-4-one]
Cc1[nH]c(-c2cnc(C3CC(F)(F)C3)cc2C2CCC(C(F)(F)F)CC2)cc(=O)c1-c1ncco1 (stereo not drawn) [Compound 189, 6-[6-(3,3-difluorocyclobutyl)-4-[4-(trifluoromethyl)cyclohexyl]-3-pyridyl]-2-methyl-3-oxazol-2-yl-1H-pyridin-4-one]
